Assay results reported in US10111937B2, “Method of reducing accumulation of intracellular tingible body macrophages” (THE REGENTS OF THE UNIVERSITY OF MICHIGAN, priority 2008, dated 2018).
At least one compound was matched to its structure with a doubt left.

Target: T1, LPLA2 (Canis lupus familiaris, UniProt Q6XPZ3)
T1 construct: endogenous in cells; host or cells: MDCK cells
T1 sequence (Q6XPZ3 32-408): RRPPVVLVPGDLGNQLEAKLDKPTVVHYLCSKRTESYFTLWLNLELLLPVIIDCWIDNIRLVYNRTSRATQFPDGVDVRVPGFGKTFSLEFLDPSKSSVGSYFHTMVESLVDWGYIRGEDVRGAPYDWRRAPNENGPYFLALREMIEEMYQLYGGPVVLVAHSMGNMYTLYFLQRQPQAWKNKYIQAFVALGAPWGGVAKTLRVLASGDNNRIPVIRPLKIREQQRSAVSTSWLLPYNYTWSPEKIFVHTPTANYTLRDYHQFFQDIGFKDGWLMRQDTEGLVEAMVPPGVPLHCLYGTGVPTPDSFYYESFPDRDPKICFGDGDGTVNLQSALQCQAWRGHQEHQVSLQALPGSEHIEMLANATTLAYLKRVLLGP
Assay: LPLA2 activity in MDCK cells treated with cationic amphiphilic drugs, measured as transacylation of N-acetylsphingosine
Assay type: cell-based
Settings: MDCK cells treated for 1 or seven days; FIG. 10A
Protocol: LPLA2 activity was measured as the transacylation of N-acetylsphingosine. […] The major cellular phospholipids were assayed following 1 or 7 days of exposure to the CAD.

CN(C)[C@@H]1C(O)=C(C(N)=O)C(=O)[C@@]2(O)C(O)=C3C(=O)c4c(O)cccc4[C@@](C)(O)[C@H]3C[C@@H]12 [tetracycline]
inhibition of LPLA2 activity as measured by ceramide transacylation: without inhibitory effect
